Measurements published in publication PMC8864472.
Results are given in words; binding and its absence hold for the method and conditions named. Binding seen in cells or lysates may run through a third protein. Here binding means that the protein was enriched with, or labelled near, the bait; the list need not be complete. For part of these data: Sequences can lack the tags named with a protein.

Sequences of proteins named here, by UniProt entry; tags and fusion partners are left off.
UniProt O14939: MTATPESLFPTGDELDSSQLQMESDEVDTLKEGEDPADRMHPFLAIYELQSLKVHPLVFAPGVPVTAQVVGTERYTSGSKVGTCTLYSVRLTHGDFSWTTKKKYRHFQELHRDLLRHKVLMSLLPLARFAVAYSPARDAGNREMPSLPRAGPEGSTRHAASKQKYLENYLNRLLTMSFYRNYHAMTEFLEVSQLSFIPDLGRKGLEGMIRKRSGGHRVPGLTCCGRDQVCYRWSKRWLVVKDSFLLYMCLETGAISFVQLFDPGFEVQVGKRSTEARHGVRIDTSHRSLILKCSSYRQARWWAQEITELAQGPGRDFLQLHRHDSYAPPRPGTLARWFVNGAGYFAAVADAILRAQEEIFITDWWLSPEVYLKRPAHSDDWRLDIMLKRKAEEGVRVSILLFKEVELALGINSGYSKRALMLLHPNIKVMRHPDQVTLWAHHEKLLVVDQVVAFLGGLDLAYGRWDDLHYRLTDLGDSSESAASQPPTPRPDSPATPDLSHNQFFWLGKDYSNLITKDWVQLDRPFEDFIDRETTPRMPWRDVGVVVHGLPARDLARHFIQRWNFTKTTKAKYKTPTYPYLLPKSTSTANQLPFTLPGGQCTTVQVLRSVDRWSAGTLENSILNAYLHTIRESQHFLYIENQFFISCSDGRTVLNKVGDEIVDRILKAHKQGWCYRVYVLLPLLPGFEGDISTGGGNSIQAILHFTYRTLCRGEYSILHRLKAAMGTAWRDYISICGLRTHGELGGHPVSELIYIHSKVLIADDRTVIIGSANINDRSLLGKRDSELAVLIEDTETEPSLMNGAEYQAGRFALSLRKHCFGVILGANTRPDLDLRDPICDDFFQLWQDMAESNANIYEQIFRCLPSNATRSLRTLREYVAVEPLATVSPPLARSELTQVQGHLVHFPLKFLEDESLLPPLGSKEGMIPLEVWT
UniProt P68371: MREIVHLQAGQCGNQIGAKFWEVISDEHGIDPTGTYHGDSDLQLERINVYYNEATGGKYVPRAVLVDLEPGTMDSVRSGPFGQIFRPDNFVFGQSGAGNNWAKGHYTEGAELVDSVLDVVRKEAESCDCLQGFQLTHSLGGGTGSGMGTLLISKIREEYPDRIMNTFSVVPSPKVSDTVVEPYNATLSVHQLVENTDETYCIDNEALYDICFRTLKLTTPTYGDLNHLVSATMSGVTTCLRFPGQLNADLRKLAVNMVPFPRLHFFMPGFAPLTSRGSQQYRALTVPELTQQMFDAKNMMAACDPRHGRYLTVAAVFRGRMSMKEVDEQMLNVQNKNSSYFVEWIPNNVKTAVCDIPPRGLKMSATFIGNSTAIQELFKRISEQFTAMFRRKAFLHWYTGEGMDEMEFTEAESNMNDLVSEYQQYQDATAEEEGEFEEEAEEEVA
UniProt Q9BVA1: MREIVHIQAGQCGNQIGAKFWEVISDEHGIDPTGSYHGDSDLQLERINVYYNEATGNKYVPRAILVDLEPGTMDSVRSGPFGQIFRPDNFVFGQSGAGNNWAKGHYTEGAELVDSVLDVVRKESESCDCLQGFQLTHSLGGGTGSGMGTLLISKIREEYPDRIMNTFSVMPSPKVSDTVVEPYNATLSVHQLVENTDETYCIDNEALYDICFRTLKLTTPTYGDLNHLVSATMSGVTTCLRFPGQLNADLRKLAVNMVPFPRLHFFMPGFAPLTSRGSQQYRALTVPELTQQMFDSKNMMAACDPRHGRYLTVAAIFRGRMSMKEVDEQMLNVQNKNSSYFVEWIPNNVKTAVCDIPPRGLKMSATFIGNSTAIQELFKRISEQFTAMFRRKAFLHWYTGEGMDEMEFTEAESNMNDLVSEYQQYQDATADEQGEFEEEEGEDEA
UniProt Q9BQE3: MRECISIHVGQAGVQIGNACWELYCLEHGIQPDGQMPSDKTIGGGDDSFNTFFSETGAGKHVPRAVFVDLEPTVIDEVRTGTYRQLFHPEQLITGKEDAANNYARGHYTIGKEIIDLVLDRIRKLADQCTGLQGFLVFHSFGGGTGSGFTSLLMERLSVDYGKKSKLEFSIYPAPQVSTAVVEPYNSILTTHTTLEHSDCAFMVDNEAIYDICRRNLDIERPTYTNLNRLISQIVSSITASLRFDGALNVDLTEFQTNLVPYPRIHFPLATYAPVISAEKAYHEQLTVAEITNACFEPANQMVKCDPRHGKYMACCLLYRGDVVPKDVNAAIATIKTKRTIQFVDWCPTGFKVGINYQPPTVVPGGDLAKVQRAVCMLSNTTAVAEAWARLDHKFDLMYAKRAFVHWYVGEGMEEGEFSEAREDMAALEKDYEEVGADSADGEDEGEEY
UniProt P08754: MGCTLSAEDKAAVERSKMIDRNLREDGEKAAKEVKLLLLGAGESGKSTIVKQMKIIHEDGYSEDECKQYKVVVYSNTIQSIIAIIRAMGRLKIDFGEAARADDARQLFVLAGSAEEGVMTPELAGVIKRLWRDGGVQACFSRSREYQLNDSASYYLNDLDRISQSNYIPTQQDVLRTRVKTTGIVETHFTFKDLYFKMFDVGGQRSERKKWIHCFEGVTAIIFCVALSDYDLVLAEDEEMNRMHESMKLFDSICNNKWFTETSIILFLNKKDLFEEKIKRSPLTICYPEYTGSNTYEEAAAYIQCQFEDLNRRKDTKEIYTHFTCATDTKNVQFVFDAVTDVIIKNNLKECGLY

T1: ANKMY2 (not stated (Human ORFeome V5.1 library or DNASU plasmid)) (UniProt Q8IV38)
T1 sequence: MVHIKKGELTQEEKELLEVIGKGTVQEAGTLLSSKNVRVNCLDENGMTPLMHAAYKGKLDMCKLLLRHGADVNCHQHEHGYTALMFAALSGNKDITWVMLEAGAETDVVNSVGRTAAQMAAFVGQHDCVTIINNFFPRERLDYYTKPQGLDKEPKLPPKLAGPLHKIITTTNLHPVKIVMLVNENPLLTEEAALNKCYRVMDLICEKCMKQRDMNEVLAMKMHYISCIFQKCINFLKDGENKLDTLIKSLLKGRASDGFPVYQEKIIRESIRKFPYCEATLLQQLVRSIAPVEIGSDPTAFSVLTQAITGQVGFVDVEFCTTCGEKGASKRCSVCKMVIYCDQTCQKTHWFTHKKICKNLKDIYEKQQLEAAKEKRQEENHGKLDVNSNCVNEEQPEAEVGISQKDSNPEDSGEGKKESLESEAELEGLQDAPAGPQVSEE

T2: PLD6 (human) (UniProt Q8N2A8)
T2 sequence: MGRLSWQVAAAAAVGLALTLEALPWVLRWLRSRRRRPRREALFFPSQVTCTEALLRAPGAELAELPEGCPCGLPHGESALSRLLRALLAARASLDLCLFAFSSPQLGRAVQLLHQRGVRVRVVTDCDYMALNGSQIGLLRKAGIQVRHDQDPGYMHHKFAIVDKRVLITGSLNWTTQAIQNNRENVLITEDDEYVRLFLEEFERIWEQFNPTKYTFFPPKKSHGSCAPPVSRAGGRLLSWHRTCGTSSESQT

T3: PLD5 (human) (UniProt Q8N7P1)
T3 sequence: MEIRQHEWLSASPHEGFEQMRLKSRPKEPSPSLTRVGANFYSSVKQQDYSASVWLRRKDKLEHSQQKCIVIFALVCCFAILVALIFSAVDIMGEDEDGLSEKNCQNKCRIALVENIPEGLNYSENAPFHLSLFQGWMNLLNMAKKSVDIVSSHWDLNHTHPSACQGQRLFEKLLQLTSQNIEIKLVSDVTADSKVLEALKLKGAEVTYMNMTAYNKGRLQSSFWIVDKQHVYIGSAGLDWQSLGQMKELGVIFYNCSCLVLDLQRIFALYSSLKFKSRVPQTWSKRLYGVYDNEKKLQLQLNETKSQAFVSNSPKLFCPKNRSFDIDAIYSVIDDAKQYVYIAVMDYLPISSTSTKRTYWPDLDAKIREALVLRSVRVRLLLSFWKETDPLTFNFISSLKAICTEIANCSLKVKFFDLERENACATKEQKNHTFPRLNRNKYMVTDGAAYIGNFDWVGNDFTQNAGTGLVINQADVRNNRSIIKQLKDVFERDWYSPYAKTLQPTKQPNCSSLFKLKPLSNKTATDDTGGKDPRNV

T4: phospholipase D1 (human) (UniProt Q13393)
T4 sequence: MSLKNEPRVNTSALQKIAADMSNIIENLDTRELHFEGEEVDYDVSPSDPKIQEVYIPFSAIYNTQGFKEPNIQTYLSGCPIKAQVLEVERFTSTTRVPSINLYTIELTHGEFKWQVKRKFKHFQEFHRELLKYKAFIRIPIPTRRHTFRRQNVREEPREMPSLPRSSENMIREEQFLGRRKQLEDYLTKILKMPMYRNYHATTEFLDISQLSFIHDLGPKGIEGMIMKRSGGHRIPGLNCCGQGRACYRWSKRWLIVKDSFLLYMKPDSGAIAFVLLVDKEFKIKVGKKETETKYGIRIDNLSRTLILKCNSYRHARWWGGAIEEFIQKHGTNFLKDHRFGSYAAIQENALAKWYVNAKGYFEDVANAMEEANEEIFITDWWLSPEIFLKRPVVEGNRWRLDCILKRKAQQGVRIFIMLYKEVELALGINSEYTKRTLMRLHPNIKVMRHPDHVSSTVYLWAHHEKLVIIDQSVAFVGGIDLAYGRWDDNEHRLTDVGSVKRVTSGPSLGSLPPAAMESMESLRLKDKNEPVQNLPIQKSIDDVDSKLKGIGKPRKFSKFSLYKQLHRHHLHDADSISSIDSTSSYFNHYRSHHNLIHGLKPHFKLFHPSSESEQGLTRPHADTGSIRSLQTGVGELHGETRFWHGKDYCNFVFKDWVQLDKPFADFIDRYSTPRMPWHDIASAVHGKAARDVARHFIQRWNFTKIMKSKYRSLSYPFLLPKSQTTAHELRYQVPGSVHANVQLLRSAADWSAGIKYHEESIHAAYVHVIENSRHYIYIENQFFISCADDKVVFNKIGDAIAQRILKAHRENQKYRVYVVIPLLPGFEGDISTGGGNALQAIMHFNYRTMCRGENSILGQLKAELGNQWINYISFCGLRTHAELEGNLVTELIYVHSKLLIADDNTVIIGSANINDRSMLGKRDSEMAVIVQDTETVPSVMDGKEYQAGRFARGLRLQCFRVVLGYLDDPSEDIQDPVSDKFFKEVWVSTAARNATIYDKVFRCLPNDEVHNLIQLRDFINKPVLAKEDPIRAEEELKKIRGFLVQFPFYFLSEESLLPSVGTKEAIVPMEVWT


Experiments:
[1] = target: T1, ANKMY2 (not stated (Human ORFeome V5.1 library or DNASU plasmid)); experiment: affinity purification with mass spectrometry; reverse TAP-MS with ANKMY2 as bait; cells and conditions not told
PLD2 (human) = PLD2 (human) (UniProt O14939); experiment: affinity purification with mass spectrometry; TAP-MS: C-terminal SFB-tagged PLD bait from stable HEK293A cells, lysed in NETN buffer (100 mM NaCl, 20 mM Tris-HCl pH 8.0, 0.5 mM EDTA, 0.5% Nonidet P-40), streptavidin beads, biotin elution, S protein beads, 4 °C; HCIP: SAINT score at least 0.8 and raw spectra count at least 2
PLD6 (human) = target: T2, PLD6 (human); experiment: as above
PLD5 (human) = target: T3, PLD5 (human); experiment: as above
phospholipase D1 (human) = target: T4, phospholipase D1 (human); experiment: as above

Molecule | binding (PLD2 (human)) | binding (PLD6 (human)) | binding (PLD5 (human)) | further results
PLD2 (from UniProt O14939 1-933) |  |  |  | binding [1]: binds
TUBB4B (from UniProt P68371 1-445) | binds | binds |  | 
TUBB2B (from UniProt Q9BVA1 1-445) | binds | binds |  | 
TUBA1C (from UniProt Q9BQE3 1-449) | binds | binds |  | 
GNAI3 (from UniProt P08754 1-354) |  |  | binds | 
UNC45A (protein, UniProt Q9H3U1 1-944) MTVSGPGTPEPRPATPGASSVEQLRKEGNELFKCGDYGGALAAYTQALGLDATPQDQAVLHRNRAACHLKLEDYDKAETEASKAIEKDGGDVKALYRRSQALEKLGRLDQAVLDLQRCVSLEPKNKVFQEALRNIGGQIQEKVRYMSSTDAKVEQMFQILLDPEEKGTEKKQKASQNLVVLAREDAGAEKIFRSNGVQLLQRLLDMGETDLMLAALRTLVGICSEHQSRTVATLSILGTRRVVSILGVESQAVSLAACHLLQVMFDALKEGVKKGFRGKEGAIIVDPARELKVLISNLLDLLTEVGVSGQGRDNALTLLIKAVPRKSLKDPNNSLTLWVIDQGLKKILEVGGSLQDPPGELAVTANSRMSASILLSKLFDDLKCDAERENFHRLCENYIKSWFEGQGLAGKLRAIQTVSCLLQGPCDAGNRALELSGVMESVIALCASEQEEEQLVAVEALIHAAGKAKRASFITANGVSLLKDLYKCSEKDSIRIRALVGLCKLGSAGGTDFSMKQFAEGSTLKLAKQCRKWLCNDQIDAGTRRWAVEGLAYLTFDADVKEEFVEDAAALKALFQLSRLEERSVLFAVASALVNCTNSYDYEEPDPKMVELAKYAKQHVPEQHPKDKPSFVRARVKKLLAAGVVSAMVCMVKTESPVLTSSCRELLSRVFLALVEEVEDRGTVVAQGGGRALIPLALEGTDVGQTKAAQALAKLTITSNPEMTFPGERIYEVVRPLVSLLHLNCSGLQNFEALMALTNLAGISERLRQKILKEKAVPMIEGYMFEEHEMIRRAATECMCNLAMSKEVQDLFEAQGNDRLKLLVLYSGEDDELLQRAAAGGLAMLTSMRPTLCSRIPQVTTHWLEILQALLLSSNQELQHRGAVVVLNMVEASREIASTLMESEMMEILSVLAKGDHSPVTRAAAACLDKAVEYGLIQPNQDGE |  |  | binds | 
TTC1 (protein, UniProt Q99614 1-292) MGEKSENCGVPEDLLNGLKVTDTQEAECAGPPVPDPKNQHSQSKLLRDDEAHLQEDQGEEECFHDCSASFEEEPGADKVENKSNEDVNSSELDEEYLIELEKNMSDEEKQKRREESTRLKEEGNEQFKKGDYIEAESSYSRALEMCPSCFQKERSILFSNRAAARMKQDKKEMAINDCSKAIQLNPSYIRAILRRAELYEKTDKLDEALEDYKSILEKDPSIHQAREACMRLPKQIEERNERLKEEMLGKLKDLGNLVLRPFGLSTENFQIKQDSSTGSYSINFVQNPNNNR |  |  | binds | 
PCCB (protein, UniProt P05166 29-539) CSQATSVNERIENKRRTALLGGGQRRIDAQHKRGKLTARERISLLLDPGSFVESDMFVEHRCADFGMAADKNKFPGDSVVTGRGRINGRLVYVFSQDFTVFGGSLSGAHAQKICKIMDQAITVGAPVIGLNDSGGARIQEGVESLAGYADIFLRNVTASGVIPQISLIMGPCAGGAVYSPALTDFTFMVKDTSYLFITGPDVVKSVTNEDVTQEELGGAKTHTTMSGVAHRAFENDVDALCNLRDFFNYLPLSSQDPAPVRECHDPSDRLVPELDTIVPLESTKAYNMVDIIHSVVDEREFFEIMPNYAKNIIVGFARMNGRTVGIVGNQPKVASGCLDINSSVKGARFVRFCDAFNIPLITFVDVPGFLPGTAQEYGGIIRHGAKLLYAFAEATVPKVTVITRKAYGGAYDVMSSKHLCGDTNYAWPTAEIAVMGAKGAVEIIFKGHENVEAAQAEYIEKFANPFPAAVRGFVDDIIQPSSTRARICCDLDVLASKKVQRPWRKHANIPL |  |  | binds | 
PJA2 (protein, UniProt O43164 1-708) MSQYTEKEPAAMDQESGKAVWPKPAGGYQTITGRRYGRRHAYVSFKPCMTRHERSLGRAGDDYEVLELDDVPKENSSGSSPLDQVDSSLPSEPIFEKSETEIPTCGSALNQTTESSQSFVAVHHSEEGRDTLGSSTNLHNHSEGEYIPGACSASSVQNGIALVHTDSYDPDGKHGEDNDHLQLSAEVVEGSRYQESLGNTVFELENREAEAYTGLSPPVPSFNCEVRDEFEELDSVPLVKSSAGDTEFVHQNSQEIQRSSQDEMVSTKQQNNTSQERQTEHSPEDAACGPGHICSEQNTNDREKNHGSSPEQVVRPKVRKLISSSQVDQETGFNRHEAKQRSVQRWREALEVEESGSDDLLIKCEEYDGEHDCMFLDPPYSRVITQRETENNQMTSESGATAGRQEVDNTFWNGCGDYYQLYDKDEDSSECSDGEWSASLPHRFSGTEKDQSSSDESWETLPGKDENEPELQSDSSGPEEENQELSLQEGEQTSLEEGEIPWLQYNEVNESSSDEGNEPANEFAQPAFMLDGNNNLEDDSSVSEDLDVDWSLFDGFADGLGVAEAISYVDPQFLTYMALEERLAQAMETALAHLESLAVDVEVANPPASKESIDGLPETLVLEDHTAIGQEQCCPICCSEYIKDDIATELPCHHFFHKPCVSIWLQKSGTCPVCRRHFPPAVIEASAAPSSEPDPDAPPSNDSIAEAP |  |  |  | binding (phospholipase D1 (human)): binds
ANKMY2 (protein, UniProt Q8IV38 1-441) MVHIKKGELTQEEKELLEVIGKGTVQEAGTLLSSKNVRVNCLDENGMTPLMHAAYKGKLDMCKLLLRHGADVNCHQHEHGYTALMFAALSGNKDITWVMLEAGAETDVVNSVGRTAAQMAAFVGQHDCVTIINNFFPRERLDYYTKPQGLDKEPKLPPKLAGPLHKIITTTNLHPVKIVMLVNENPLLTEEAALNKCYRVMDLICEKCMKQRDMNEVLAMKMHYISCIFQKCINFLKDGENKLDTLIKSLLKGRASDGFPVYQEKIIRESIRKFPYCEATLLQQLVRSIAPVEIGSDPTAFSVLTQAITGQVGFVDVEFCTTCGEKGASKRCSVCKMVIYCDQTCQKTHWFTHKKICKNLKDIYEKQQLEAAKEKRQEENHGKLDVNSNCVNEEQPEAEVGISQKDSNPEDSGEGKKESLESEAELEGLQDAPAGPQVSEE | binds |  | binds | binding (phospholipase D1 (human)): binds
